This is one part of the list.
Columns and labels:
Assay in all cases: log2 fold change, soluble protein after heating vs DMSO (PISA); higher = thermal stabilisation; K562 cells, 10 uM, 30 min; active = over 0.2 and 3.5 SD of the protein, either way, in both replicates (recomputed)
saracatinib = compound: CN1CCN(CCOc2cc(OC3CCOCC3)c3c(Nc4c(Cl)ccc5c4OCO5)ncnc3c2)CC1 [saracatinib]
Summary of the method: (§1)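 K562 cells at 2×10^6 cells/mL were treated with 10 μM compound for 30 min. Aliquots were heated for 3 min across 48°C-58°C, pooled, and extracted in PBS with 0.5% NP-40 at 4°C; soluble protein was the supernatant after 21,000xg for 90 min. Soluble protein was quantified by TMTpro 16plex LC-MS/MS with channel sums equalised, and reported as log2 fold change in thermal stability against DMSO controls, with values from duplicates.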

Protein sequences, listed by entry. Tags and fused reporters are not part of them. Lines headed by an entry give the natural chain unless they say otherwise; changes in a name come on top.
UniProt Q969H8: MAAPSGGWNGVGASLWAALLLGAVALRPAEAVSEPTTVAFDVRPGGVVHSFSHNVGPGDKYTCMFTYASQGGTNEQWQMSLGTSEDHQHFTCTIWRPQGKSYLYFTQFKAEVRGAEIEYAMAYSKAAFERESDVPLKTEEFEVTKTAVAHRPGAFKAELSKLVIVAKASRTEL
UniProt P00156: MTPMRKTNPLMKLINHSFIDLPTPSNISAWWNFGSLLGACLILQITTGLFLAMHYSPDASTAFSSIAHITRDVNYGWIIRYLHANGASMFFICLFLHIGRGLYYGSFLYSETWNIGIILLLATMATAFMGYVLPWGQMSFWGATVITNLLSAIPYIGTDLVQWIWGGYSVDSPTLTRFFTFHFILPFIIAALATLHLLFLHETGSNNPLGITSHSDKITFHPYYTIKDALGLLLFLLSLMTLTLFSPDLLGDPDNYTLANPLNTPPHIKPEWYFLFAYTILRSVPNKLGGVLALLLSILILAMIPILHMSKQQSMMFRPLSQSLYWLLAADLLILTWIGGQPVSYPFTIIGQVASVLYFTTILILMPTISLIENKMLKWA
UniProt Q765P7: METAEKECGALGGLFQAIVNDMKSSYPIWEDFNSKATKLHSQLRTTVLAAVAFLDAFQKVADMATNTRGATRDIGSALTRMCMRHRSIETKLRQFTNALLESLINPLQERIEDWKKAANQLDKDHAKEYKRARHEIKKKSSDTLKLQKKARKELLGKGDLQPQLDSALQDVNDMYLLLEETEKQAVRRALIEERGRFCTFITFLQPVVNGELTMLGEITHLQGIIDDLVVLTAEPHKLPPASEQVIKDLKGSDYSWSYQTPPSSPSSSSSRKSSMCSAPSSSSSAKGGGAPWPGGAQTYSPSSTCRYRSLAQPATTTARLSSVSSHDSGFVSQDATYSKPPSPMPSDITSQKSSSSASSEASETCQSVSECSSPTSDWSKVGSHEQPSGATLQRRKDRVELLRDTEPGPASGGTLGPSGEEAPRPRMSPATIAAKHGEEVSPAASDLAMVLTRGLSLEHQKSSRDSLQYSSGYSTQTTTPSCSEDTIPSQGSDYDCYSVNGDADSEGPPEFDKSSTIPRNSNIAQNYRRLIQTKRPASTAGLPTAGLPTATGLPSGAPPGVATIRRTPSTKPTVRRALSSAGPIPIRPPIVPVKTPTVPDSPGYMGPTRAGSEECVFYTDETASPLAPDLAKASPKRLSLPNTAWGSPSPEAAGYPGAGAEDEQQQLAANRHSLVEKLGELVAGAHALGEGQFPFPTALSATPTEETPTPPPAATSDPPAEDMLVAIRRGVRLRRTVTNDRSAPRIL
UniProt Q9NZJ7, whole entry, looked up: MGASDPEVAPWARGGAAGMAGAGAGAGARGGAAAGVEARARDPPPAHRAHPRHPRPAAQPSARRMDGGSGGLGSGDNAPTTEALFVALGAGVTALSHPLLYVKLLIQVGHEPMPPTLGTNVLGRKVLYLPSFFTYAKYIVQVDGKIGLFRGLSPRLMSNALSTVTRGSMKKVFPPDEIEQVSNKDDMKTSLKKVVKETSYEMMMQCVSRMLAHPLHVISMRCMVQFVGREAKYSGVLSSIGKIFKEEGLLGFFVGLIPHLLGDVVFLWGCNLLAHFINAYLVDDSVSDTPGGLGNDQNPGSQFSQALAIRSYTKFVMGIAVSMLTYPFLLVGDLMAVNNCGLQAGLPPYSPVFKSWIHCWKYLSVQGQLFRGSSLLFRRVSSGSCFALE
UniProt Q9UM54, whole entry, looked up: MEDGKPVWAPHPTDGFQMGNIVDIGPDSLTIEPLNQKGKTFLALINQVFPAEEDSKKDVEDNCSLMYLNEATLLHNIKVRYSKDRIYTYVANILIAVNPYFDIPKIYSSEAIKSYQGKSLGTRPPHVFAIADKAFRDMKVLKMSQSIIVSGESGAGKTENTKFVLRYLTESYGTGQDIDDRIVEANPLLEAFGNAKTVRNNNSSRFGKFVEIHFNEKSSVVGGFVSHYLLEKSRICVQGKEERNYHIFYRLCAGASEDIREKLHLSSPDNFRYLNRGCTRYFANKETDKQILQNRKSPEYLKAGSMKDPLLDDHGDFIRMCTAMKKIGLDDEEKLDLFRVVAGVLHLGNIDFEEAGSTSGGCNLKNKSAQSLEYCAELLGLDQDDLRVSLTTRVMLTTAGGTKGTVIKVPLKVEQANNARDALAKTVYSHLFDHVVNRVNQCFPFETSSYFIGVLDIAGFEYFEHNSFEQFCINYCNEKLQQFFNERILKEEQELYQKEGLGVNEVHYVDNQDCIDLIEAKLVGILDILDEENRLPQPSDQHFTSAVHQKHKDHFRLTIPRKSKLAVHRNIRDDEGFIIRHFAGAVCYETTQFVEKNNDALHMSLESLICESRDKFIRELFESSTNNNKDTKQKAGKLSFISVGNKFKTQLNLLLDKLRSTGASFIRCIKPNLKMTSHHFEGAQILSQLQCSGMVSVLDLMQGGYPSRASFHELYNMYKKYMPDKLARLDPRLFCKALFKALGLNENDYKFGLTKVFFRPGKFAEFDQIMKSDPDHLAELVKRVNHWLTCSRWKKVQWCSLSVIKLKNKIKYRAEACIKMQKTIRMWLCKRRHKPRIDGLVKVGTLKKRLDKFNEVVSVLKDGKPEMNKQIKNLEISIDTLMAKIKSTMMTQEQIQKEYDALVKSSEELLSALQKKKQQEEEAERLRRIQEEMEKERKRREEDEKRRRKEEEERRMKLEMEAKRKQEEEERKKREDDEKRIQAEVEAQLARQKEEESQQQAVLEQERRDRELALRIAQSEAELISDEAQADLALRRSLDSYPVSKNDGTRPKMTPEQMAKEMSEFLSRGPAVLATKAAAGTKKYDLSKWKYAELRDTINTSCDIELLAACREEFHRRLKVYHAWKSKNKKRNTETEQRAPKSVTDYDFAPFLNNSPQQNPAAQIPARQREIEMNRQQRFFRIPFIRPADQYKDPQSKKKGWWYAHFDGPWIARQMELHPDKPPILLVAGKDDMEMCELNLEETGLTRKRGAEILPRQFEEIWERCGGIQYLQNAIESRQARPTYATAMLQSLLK
UniProt Q9H2K0, whole entry, looked up: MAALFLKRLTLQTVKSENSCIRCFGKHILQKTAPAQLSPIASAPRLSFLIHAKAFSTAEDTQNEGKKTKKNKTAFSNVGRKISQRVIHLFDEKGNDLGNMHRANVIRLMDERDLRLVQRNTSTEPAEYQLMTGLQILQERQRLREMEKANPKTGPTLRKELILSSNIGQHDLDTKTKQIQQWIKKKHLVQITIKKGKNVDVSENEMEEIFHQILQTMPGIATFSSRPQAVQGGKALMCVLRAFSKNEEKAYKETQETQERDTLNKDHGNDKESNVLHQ
UniProt Q7Z406, whole entry, looked up: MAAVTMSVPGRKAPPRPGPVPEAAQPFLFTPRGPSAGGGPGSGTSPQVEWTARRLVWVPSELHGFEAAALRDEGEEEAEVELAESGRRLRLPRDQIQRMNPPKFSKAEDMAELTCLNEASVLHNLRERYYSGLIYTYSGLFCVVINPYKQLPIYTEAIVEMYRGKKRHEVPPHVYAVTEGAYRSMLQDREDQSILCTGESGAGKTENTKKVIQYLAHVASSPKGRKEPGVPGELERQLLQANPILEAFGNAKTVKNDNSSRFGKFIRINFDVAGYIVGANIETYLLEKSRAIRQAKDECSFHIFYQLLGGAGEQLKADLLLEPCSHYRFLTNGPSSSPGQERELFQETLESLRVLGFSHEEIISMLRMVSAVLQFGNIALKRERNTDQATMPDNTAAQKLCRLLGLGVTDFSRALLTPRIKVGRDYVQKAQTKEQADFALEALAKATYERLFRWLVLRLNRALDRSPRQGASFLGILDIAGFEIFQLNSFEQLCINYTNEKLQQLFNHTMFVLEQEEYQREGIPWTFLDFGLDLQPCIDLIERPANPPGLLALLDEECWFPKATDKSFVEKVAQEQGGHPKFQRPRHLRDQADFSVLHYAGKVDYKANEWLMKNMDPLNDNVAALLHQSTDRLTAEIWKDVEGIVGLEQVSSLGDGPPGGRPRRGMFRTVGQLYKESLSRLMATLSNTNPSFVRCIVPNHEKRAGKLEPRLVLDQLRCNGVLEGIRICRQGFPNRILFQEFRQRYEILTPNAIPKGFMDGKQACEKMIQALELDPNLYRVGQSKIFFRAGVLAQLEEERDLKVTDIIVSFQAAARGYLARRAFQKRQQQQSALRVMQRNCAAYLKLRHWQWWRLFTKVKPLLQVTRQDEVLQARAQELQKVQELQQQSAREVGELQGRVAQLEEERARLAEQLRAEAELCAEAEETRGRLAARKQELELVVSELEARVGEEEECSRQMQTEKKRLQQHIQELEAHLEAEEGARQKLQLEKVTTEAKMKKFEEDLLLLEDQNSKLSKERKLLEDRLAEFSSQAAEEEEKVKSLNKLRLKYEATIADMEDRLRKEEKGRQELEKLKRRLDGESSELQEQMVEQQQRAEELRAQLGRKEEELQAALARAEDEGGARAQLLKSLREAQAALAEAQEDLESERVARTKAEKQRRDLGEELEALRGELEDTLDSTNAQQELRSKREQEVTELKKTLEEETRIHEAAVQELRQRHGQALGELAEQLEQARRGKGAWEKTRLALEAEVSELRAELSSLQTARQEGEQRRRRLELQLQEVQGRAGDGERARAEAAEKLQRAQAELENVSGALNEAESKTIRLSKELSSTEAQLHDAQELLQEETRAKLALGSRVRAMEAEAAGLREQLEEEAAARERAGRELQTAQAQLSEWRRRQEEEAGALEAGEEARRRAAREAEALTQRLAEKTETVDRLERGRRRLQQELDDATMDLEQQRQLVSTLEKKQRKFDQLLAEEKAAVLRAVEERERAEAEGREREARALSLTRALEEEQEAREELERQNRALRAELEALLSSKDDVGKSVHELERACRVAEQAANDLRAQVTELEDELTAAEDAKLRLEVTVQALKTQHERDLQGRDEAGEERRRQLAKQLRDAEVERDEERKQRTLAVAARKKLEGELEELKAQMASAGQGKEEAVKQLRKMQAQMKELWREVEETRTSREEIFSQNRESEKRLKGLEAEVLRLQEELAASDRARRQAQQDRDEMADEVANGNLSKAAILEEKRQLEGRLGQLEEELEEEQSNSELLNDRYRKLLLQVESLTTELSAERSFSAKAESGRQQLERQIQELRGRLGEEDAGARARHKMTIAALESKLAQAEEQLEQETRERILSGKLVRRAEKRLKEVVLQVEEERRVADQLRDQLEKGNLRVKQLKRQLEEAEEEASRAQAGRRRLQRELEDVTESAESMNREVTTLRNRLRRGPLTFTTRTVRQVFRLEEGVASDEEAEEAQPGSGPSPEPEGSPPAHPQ
UniProt P12829: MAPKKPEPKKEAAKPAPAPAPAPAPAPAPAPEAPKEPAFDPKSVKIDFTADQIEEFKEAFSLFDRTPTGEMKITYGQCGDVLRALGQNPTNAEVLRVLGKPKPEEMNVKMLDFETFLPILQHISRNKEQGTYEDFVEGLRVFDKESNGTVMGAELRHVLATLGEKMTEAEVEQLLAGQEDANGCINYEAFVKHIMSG
UniProt Q99417: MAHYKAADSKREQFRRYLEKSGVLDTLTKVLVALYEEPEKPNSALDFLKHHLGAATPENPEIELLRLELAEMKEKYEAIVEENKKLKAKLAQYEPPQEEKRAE
UniProt P14649: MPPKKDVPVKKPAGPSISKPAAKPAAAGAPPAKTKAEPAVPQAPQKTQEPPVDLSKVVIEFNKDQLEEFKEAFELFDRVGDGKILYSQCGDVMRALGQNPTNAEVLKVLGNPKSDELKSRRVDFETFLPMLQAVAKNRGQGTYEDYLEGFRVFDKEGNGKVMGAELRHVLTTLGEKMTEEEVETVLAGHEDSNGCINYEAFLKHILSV
UniProt P03886, whole entry, looked up: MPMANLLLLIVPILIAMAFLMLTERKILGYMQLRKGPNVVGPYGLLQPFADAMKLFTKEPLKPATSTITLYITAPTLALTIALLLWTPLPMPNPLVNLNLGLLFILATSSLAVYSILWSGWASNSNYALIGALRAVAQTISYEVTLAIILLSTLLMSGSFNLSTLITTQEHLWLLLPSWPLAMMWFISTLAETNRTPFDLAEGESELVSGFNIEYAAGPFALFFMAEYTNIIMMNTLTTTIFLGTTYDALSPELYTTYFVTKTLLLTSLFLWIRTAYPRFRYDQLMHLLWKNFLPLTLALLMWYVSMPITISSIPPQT

sotrastaurin = compound: CN1CCN(c2nc(C3=C(c4c[nH]c5ccccc45)C(=O)NC3=O)c3ccccc3n2)CC1 [sotrastaurin]
Summary of the method: as §1

alvocidib = compound: CN1CC[C@H](c2c(O)cc(O)c3c(=O)cc(-c4ccccc4Cl)oc23)[C@H](O)C1 [alvocidib]
Summary of the method: as §1

Tubastatin A = compound: CN1CCc2c(c3ccccc3n2Cc2ccc(C(=O)NO)cc2)C1 [Tubastatin A]
Summary of the method: as §1

[1] = compound: CNC(=O)C1=CC=CC=C1NC2=NC(=NC=C2Cl)NC3=C(C=C(C=C3)N4CCOCC4)OC
Summary of the method: as §1

defactinib = compound: CNC(=O)c1ccc(Nc2ncc(C(F)(F)F)c(NCc3nccnc3N(C)S(C)(=O)=O)n2)cc1 [defactinib]
Summary of the method: as §1

rucaparib = compound: CNCc1ccc(-c2[nH]c3cc(F)cc4c3c2CCNC4=O)cc1 [rucaparib]
Summary of the method: as §1

[2] = compound: CNc1nc(-c2ccc3c(N)n[nH]c3c2)cc(N2C[C@@H](C(=O)NC3CCCCC3)CC[C@H]2C)n1
Summary of the method: as §1

encorafenib = compound: COC(=O)N[C@@H](C)CNc1nccc(-c2cn(C(C)C)nc2-c2cc(Cl)cc(NS(C)(=O)=O)c2F)n1 [encorafenib]
Summary of the method: as §1

[3] = compound: COC(=O)[C@H](CCSC)NC(=O)C1=C(C=C(C=C1)NC[C@H](CS)N)C2=CC=CC=C2
Summary of the method: as §1

[4] = compound: COC1=CC=C(C=C1)CN2C=CC3=C2C=C(C=C3)C(=O)NO
Summary of the method: as §1

filanesib = compound: CON(C)C(=O)N1N=C(c2cc(F)ccc2F)S[C@@]1(CCCN)c1ccccc1 [filanesib]
Summary of the method: as §1

zotarolimus = compound: CO[C@H]1C[C@@H]2CC[C@@H](C)[C@@](O)(O2)C(=O)C(=O)N2CCCC[C@H]2C(=O)O[C@H]([C@H](C)C[C@@H]2CC[C@H](n3cnnn3)[C@H](OC)C2)CC(=O)[C@H](C)/C=C(\C)[C@@H](O)[C@@H](OC)C(=O)[C@H](C)C[C@H](C)/C=C/C=C/C=C/1C [zotarolimus]
Summary of the method: as §1

idasanutlin = compound: COc1cc(C(=O)O)ccc1NC(=O)[C@@H]1N[C@@H](CC(C)(C)C)[C@](C#N)(c2ccc(Cl)cc2F)[C@H]1c1cccc(Cl)c1F [idasanutlin]
Summary of the method: as §1

alisertib = compound: COc1cc(Nc2ncc3c(n2)-c2ccc(Cl)cc2C(c2c(F)cccc2OC)=NC3)ccc1C(=O)O [alisertib]
Summary of the method: as §1

[5] = compound: COc1cc2nc(-c3cc(F)ccc3O)nc(N[C@@H]3CNC[C@H]3C(C)(C)O)c2cc1OC
Summary of the method: as §1

gefitinib = compound: COc1cc2ncnc(Nc3ccc(F)c(Cl)c3)c2cc1OCCCN1CCOCC1 [gefitinib]
Summary of the method: as §1

[6] = compound: COc1cccc2cc(-c3nc([C@H]4CC[C@H](C(=O)O)CC4)n4ncnc(N)c34)[nH]c12
Summary of the method: as §1

lapatinib = compound: CS(=O)(=O)CCNCc1ccc(-c2ccc3ncnc(Nc4ccc(OCc5cccc(F)c5)c(Cl)c4)c3c2)o1 [lapatinib]
Summary of the method: as §1

pictilisib = compound: CS(=O)(=O)N1CCN(Cc2cc3nc(-c4cccc5[nH]ncc45)nc(N4CCOCC4)c3s2)CC1 [pictilisib]
Summary of the method: as §1

Measured: log2 fold change

MRPS34 (UniProt P82930)
inactive: saracatinib -0.111 | sotrastaurin 0.013 | alvocidib -0.035 | Tubastatin A 0.003 | [1] 0.089 | defactinib 0.057 | rucaparib 0.077 | [2] 0.117 | encorafenib 0.044 | [3] -0.062 | [4] -0.025 | filanesib 0.122 | zotarolimus 0.11 | idasanutlin -0.2 | alisertib -0.036 | [5] 0.002 | gefitinib 0.072 | [6] 0.042 | lapatinib 0.064 | pictilisib -0.042

MYDGF (UniProt Q969H8)
inactive: saracatinib 0.077 | sotrastaurin 0.058 | alvocidib 0.026 | Tubastatin A -0.05 | [1] -0.02 | defactinib -0.006 | rucaparib -0.004 | [2] -0.038 | encorafenib -0.003 | [3] 0.033 | [4] -0.04 | filanesib -0.038 | zotarolimus -0.042 | idasanutlin 0.002 | alisertib -0.044 | [5] -0.006 | gefitinib 0.022 | [6] 0.06 | lapatinib -0.024 | pictilisib 0

MRPL9 (UniProt Q9BYD2)
inactive: saracatinib -0.163 | sotrastaurin -0.109 | alvocidib 0.043 | Tubastatin A 0.081 | [1] -0.056 | defactinib 0.108 | rucaparib 0.136 | [2] 0.141 | encorafenib 0.101 | [3] -0.057 | [4] 0.051 | filanesib 0.119 | zotarolimus 0.083 | idasanutlin -0.048 | alisertib 0.009 | [5] 0.02 | gefitinib -0.062 | [6] -0.05 | lapatinib 0.131 | pictilisib -0.002

MT-CYB (UniProt P00156)
inactive: saracatinib 0.036 | sotrastaurin 0.057 | alvocidib -0.042 | Tubastatin A -0.02 | [1] 0.062 | defactinib 0.023 | rucaparib -0.137 | [2] -0.017 | encorafenib 0.042 | [3] 0.063 | [4] -0.052 | filanesib -0.142 | zotarolimus -0.003 | idasanutlin -0.101 | alisertib 0.055 | [5] -0.125 | gefitinib 0.001 | [6] 0.115 | lapatinib 0.022 | pictilisib 0.026

MTSS2 (UniProt Q765P7)
inactive: saracatinib 0.062 | sotrastaurin 0.048 | alvocidib -0.007 | Tubastatin A 0.046 | [1] 0.044 | defactinib -0.016 | rucaparib -0.221 | [2] 0.012 | encorafenib -0.07 | [3] 0.034 | [4] -0.045 | filanesib -0.076 | zotarolimus -0.023 | idasanutlin -0.016 | alisertib -0.039 | [5] 0.039 | gefitinib 0.03 | [6] 0.052 | lapatinib -0.061 | pictilisib 0.096

MTCH1 (UniProt Q9NZJ7)
inactive: saracatinib 0.045 | sotrastaurin 0.049 | alvocidib -0.051 | Tubastatin A -0.067 | [1] 0.042 | defactinib -0.001 | rucaparib -0.038 | [2] 0.03 | encorafenib 0.002 | [3] -0.018 | [4] -0.007 | filanesib -0.082 | zotarolimus 0.142 | idasanutlin -0.075 | alisertib -0.024 | [5] 0.056 | gefitinib 0.051 | [6] 0.033 | lapatinib 0.077 | pictilisib 0.055

MYO6 isoform 6 (UniProt Q9UM54)
inactive: saracatinib 0.07 | sotrastaurin 0.038 | alvocidib -0.083 | Tubastatin A -0.049 | [1] -0.041 | defactinib -0.026 | rucaparib -0.009 | [2] 0.014 | encorafenib -0.001 | [3] 0.018 | [4] -0.054 | filanesib 0.013 | zotarolimus 0.002 | idasanutlin -0.066 | alisertib -0.057 | [5] 0.066 | gefitinib 0.04 | [6] 0.035 | lapatinib -0.026 | pictilisib 0.033

MRPS23 (UniProt Q9Y3D9)
inactive: saracatinib -0.068 | sotrastaurin -0.084 | alvocidib -0.085 | Tubastatin A 0.034 | [1] 0.074 | defactinib 0.007 | rucaparib 0.025 | [2] 0.146 | encorafenib 0.024 | [3] -0.035 | [4] -0.054 | filanesib 0.054 | zotarolimus 0.049 | idasanutlin -0.22 | alisertib -0.026 | [5] -0.049 | gefitinib -0.046 | [6] 0.046 | lapatinib 0.062 | pictilisib -0.055

MTIF3 (UniProt Q9H2K0)
inactive: saracatinib -0.091 | sotrastaurin -0.205 | alvocidib -0.043 | [1] 0.064 | defactinib 0.032 | [2] 0.006 | [3] -0.021 | filanesib 0.04 | zotarolimus 0.174 | idasanutlin 0.153 | gefitinib 0.243 | pictilisib -0.192

MYH14 isoform 2 (UniProt Q7Z406)
inactive: saracatinib 0.021 | sotrastaurin 0.008 | alvocidib 0.002 | Tubastatin A -0.008 | [1] -0.025 | defactinib -0.034 | rucaparib -0.053 | [2] 0.01 | encorafenib 0.014 | [3] 0.014 | [4] 0.059 | filanesib -0.046 | zotarolimus 0 | idasanutlin 0.009 | alisertib -0.048 | [5] 0.015 | gefitinib 0.026 | [6] -0.017 | lapatinib 0.01 | pictilisib 0.01

Two consecutive records from above:
MTCH1 (UniProt Q9NZJ7)
inactive: saracatinib 0.045 | sotrastaurin 0.049 | alvocidib -0.051 | Tubastatin A -0.067 | [1] 0.042 | defactinib -0.001 | rucaparib -0.038 | [2] 0.03 | encorafenib 0.002 | [3] -0.018 | [4] -0.007 | filanesib -0.082 | zotarolimus 0.142 | idasanutlin -0.075 | alisertib -0.024 | [5] 0.056 | gefitinib 0.051 | [6] 0.033 | lapatinib 0.077 | pictilisib 0.055

MYO6 isoform 6 (UniProt Q9UM54)
inactive: saracatinib 0.07 | sotrastaurin 0.038 | alvocidib -0.083 | Tubastatin A -0.049 | [1] -0.041 | defactinib -0.026 | rucaparib -0.009 | [2] 0.014 | encorafenib -0.001 | [3] 0.018 | [4] -0.054 | filanesib 0.013 | zotarolimus 0.002 | idasanutlin -0.066 | alisertib -0.057 | [5] 0.066 | gefitinib 0.04 | [6] 0.035 | lapatinib -0.026 | pictilisib 0.033

Further records follow.

MYL4 (UniProt P12829)
inactive: saracatinib 0.032 | sotrastaurin 0.039 | alvocidib -0.003 | Tubastatin A 0.032 | [1] -0.012 | defactinib 0.03 | rucaparib -0.047 | [2] -0.017 | encorafenib -0.036 | [3] -0.019 | [4] 0.033 | filanesib 0.025 | zotarolimus -0.011 | idasanutlin -0.004 | alisertib -0.046 | [5] 0.054 | gefitinib -0.03 | [6] 0.026 | lapatinib -0.091 | pictilisib 0.026

MYCBP (UniProt Q99417)
inactive: saracatinib -0.034 | sotrastaurin 0.021 | alvocidib 0.02 | Tubastatin A 0.035 | [1] -0.015 | defactinib 0.056 | rucaparib 0 | [2] -0.055 | encorafenib -0.003 | [3] 0.062 | [4] -0.058 | filanesib -0.013 | zotarolimus -0.044 | idasanutlin 0.088 | alisertib -0.069 | [5] 0.037 | gefitinib 0.032 | [6] 0.024 | lapatinib -0.035 | pictilisib 0.073

MRPS14 (UniProt O60783)
inactive: saracatinib -0.03 | sotrastaurin -0.002 | alvocidib 0.045 | Tubastatin A 0 | defactinib 0.14 | rucaparib 0.049 | [2] 0.12 | encorafenib -0.064 | [3] -0.116 | [4] -0.036 | filanesib 0.021 | zotarolimus 0.06 | idasanutlin -0.107 | [5] -0.045 | gefitinib 0.008 | lapatinib -0.077 | pictilisib 0.331

MYL6B (UniProt P14649)
inactive: saracatinib 0.02 | sotrastaurin 0.034 | alvocidib -0.015 | Tubastatin A 0.007 | [1] 0.017 | defactinib -0.006 | rucaparib -0.027 | [2] -0.104 | encorafenib 0.018 | [3] 0.02 | [4] -0.039 | filanesib 0.022 | zotarolimus -0.003 | idasanutlin -0.002 | alisertib -0.013 | [5] 0.005 | gefitinib 0.006 | [6] -0.046 | lapatinib -0.009 | pictilisib 0.023

MT-ND1 (UniProt P03886)
inactive: saracatinib 0.1 | sotrastaurin -0.005 | Tubastatin A 0.123 | [1] -0.025 | defactinib -0.068 | rucaparib -0.041 | [2] -0.11 | encorafenib 0.017 | [3] -0.058 | [4] -0.051 | filanesib 0.053 | zotarolimus 0.131 | idasanutlin -0.141 | alisertib -0.015 | [5] -0.152 | gefitinib 0.1 | [6] 0.051 | lapatinib -0.113
